{"sequences": {"note": "Sequences of proteins named here, by UniProt entry; tags and fusion partners are left off. A change or cut given only in a name is not applied to a line headed by its entry.", "UniProt P49589": "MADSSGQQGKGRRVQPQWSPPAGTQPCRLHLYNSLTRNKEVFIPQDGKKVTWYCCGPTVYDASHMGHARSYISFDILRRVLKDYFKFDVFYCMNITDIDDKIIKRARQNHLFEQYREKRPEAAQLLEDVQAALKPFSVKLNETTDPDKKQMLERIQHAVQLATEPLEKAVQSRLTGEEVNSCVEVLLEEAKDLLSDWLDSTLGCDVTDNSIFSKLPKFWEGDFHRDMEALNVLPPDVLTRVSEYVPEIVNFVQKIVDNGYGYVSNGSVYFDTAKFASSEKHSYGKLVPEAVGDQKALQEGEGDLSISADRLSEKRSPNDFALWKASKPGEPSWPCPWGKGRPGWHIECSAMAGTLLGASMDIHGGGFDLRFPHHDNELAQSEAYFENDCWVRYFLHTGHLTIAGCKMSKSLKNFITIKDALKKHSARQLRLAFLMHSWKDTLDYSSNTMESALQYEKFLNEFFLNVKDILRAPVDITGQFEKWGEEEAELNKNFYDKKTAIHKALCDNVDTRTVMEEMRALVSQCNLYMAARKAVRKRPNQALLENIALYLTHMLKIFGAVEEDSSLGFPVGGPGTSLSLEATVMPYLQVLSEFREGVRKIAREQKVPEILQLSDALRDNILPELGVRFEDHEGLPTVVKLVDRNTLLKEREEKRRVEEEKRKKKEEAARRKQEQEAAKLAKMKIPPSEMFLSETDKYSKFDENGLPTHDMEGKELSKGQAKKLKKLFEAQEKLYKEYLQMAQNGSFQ", "UniProt P49662": "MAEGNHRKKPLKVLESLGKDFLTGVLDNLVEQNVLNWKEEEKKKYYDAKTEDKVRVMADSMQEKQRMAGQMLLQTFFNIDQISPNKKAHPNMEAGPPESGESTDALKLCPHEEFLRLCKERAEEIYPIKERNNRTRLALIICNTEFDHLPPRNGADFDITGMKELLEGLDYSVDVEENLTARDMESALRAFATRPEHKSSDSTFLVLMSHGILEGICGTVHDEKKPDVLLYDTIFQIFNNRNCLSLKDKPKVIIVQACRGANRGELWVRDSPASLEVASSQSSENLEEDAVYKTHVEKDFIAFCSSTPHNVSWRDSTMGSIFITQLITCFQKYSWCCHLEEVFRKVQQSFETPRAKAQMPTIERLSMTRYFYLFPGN", "UniProt Q01518, whole entry, looked up": "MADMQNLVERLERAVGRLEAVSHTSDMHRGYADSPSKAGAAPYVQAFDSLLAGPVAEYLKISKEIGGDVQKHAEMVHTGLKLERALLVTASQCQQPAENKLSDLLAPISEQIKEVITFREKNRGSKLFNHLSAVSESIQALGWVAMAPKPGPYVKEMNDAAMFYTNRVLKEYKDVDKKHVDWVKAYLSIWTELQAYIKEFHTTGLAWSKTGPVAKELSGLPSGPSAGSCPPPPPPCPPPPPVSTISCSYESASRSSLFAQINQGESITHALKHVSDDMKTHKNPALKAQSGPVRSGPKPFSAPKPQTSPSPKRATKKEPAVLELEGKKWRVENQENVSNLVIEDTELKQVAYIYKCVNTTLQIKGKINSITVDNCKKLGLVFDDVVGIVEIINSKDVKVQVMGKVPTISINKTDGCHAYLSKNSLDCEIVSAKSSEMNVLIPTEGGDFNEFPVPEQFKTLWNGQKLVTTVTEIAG", "UniProt Q9Y6W3": "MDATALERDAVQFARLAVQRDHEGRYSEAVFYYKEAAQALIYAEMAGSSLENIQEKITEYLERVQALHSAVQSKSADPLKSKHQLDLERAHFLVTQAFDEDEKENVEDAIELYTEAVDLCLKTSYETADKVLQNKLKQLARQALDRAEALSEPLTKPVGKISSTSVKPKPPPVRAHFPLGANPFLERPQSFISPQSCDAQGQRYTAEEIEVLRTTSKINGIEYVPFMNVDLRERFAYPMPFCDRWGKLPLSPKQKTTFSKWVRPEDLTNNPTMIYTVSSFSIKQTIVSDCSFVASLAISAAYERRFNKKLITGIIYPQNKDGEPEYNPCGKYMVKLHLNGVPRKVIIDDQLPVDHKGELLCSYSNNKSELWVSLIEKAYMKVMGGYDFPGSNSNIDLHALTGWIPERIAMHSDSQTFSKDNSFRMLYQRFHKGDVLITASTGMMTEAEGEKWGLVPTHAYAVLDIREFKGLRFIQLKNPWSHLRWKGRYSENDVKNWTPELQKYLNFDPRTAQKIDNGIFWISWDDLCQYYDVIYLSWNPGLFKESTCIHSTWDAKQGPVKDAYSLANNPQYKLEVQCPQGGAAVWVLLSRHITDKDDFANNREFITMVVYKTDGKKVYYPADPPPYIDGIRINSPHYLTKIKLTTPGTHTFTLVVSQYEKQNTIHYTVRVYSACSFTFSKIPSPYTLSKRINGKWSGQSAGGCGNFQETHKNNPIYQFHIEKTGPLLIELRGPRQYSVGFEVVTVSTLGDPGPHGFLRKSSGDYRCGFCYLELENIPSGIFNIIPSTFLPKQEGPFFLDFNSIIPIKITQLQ", "UniProt O75828": "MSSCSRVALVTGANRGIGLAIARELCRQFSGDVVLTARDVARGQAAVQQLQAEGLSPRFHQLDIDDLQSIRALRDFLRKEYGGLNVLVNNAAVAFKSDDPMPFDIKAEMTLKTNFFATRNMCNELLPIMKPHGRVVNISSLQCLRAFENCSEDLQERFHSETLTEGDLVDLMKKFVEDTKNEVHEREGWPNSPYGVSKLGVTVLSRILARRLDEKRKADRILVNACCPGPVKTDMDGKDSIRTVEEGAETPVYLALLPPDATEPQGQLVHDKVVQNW", "UniProt P78371": "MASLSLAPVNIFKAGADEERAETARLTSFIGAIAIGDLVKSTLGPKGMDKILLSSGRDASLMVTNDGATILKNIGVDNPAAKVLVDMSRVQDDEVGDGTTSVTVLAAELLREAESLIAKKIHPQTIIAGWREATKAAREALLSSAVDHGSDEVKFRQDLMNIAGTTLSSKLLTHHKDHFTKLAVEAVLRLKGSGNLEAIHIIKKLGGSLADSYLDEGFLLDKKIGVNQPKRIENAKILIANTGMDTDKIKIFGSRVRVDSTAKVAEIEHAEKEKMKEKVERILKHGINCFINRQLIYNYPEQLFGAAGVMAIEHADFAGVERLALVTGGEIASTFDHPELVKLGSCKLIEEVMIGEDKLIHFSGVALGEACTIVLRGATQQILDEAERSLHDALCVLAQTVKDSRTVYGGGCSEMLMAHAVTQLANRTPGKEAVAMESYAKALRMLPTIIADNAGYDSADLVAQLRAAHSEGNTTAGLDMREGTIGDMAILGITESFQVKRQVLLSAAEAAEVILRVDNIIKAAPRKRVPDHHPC", "UniProt Q96S94": "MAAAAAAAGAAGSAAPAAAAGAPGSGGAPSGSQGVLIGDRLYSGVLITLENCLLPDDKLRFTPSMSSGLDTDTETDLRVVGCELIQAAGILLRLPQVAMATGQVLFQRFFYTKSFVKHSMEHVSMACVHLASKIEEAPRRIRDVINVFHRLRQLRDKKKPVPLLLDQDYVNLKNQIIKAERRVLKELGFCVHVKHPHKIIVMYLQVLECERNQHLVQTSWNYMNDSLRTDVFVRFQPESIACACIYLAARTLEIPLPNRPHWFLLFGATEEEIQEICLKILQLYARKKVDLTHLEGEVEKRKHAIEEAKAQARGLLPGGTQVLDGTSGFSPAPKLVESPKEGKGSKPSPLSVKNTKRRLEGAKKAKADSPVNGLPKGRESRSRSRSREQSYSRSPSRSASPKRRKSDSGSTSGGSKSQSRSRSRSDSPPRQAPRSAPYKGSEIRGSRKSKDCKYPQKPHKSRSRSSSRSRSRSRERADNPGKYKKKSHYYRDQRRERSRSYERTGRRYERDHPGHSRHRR", "UniProt P49368": "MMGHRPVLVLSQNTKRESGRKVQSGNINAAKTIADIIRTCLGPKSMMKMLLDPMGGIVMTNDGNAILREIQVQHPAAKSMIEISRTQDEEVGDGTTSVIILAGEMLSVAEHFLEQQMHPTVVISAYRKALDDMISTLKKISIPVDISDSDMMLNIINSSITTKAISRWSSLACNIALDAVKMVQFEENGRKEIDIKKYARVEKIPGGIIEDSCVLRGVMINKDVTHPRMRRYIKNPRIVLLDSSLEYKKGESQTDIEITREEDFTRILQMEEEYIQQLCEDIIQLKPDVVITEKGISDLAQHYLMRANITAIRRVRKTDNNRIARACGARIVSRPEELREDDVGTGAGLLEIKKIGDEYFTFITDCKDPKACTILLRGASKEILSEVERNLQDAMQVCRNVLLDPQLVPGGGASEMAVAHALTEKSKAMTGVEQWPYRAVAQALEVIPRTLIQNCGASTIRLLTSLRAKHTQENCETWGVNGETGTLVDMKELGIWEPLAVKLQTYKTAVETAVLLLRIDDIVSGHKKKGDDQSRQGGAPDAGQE", "UniProt P13501": "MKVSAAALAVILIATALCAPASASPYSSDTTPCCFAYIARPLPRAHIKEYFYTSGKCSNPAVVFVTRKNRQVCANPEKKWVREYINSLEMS", "UniProt P42575": "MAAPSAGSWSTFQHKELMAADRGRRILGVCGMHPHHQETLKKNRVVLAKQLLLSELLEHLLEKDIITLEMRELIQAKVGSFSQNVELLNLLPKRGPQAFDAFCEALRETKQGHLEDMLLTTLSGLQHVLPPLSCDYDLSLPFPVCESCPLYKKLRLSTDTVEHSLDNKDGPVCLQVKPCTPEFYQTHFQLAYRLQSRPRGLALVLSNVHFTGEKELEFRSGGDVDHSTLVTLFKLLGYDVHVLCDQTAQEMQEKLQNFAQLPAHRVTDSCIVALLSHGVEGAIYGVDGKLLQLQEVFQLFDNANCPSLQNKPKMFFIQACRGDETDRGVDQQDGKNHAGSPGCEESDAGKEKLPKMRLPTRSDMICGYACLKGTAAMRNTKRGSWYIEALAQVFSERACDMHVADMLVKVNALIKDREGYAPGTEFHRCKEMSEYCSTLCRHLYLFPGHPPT", "UniProt Q86X55": "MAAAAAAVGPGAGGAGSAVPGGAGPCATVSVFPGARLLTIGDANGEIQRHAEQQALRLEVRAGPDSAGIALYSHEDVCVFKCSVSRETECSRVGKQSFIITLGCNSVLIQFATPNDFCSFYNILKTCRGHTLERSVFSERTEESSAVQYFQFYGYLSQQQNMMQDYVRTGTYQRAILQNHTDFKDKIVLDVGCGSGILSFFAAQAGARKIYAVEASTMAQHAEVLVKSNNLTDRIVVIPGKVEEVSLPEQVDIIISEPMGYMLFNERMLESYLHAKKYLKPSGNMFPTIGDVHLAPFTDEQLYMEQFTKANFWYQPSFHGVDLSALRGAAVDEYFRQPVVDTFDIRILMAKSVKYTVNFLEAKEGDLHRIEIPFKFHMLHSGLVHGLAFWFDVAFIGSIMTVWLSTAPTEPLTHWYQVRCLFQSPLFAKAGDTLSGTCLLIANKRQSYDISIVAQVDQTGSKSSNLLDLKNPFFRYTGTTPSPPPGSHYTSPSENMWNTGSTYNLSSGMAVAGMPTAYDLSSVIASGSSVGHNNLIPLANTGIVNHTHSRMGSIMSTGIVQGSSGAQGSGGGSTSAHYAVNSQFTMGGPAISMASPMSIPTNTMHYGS", "UniProt Q8IX12": "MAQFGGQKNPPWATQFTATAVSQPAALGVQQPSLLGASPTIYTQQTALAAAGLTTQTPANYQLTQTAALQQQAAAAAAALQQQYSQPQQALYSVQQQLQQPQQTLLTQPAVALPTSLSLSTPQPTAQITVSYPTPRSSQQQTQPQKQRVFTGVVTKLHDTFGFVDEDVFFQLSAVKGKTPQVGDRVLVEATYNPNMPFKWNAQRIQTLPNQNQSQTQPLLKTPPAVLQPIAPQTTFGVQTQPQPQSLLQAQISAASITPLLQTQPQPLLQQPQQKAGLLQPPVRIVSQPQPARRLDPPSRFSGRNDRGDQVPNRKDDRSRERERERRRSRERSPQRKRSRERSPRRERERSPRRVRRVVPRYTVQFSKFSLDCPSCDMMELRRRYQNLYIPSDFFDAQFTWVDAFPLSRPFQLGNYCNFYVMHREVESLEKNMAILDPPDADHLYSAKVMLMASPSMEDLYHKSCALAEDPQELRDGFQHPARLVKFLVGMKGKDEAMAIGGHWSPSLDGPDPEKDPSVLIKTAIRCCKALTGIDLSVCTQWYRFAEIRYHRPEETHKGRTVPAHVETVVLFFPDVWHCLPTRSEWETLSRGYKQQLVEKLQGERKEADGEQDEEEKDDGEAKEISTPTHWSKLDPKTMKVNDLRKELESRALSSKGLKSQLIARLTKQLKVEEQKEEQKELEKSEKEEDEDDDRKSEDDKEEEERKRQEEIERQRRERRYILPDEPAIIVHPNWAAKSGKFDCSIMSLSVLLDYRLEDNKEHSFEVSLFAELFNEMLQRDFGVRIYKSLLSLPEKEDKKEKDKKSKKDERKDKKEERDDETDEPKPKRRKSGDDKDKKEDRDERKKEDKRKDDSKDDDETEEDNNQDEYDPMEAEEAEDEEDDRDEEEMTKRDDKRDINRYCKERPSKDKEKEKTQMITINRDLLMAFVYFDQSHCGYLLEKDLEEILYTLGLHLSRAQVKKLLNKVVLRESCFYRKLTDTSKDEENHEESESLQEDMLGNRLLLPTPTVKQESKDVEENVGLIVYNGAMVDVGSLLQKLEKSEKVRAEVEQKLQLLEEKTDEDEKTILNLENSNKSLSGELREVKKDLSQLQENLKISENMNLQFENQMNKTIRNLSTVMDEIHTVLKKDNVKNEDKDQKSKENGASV"}, "source": "the supplement of paper PMC12067093", "about": "“Discovery and optimisation of a covalent ligand for TRIM25 and its application to targeted protein ubiquitination” (Chemical Science, 2025)", "compound": "CC1Cc2ccccc2N1C(=O)C1CCCN(C1)C(=O)CCl (mixture of isomers) [TRIM25 ligand 11 (diastereomer mixture)]", "assay": "probe-labelled cysteine peptide fold change vs DMSO (competition) (log2 fold change); higher = less target engagement (more negative = stronger competition)", "details": "THP-1, incubation time: 4 h", "note": "Some of the results follow.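 Also: competitive chemoproteomic profiling in live THP-1 cells with an iodoacetamide desthiobiotin (IA-DTB) probe, comparing probe-labelled peptide intensities in compound-treated cells against DMSO-treated controls.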", "data": [{"target": "CBR1_P16152_122_DVCTELLPLIK (UniProt P16152)", "values": [{"measurement": "probe-labelled cysteine peptide fold change", "setting": "10 µM", "result": 0.158}, {"measurement": "probe-labelled cysteine peptide fold change", "setting": "50 µM", "result": 0.184}]}, {"target": "CARS_P49589_55_VTWYCCGPTVYDASHMGHAR (UniProt P49589)", "values": [{"measurement": "probe-labelled cysteine peptide fold change", "setting": "10 µM", "result": -0.00365}, {"measurement": "probe-labelled cysteine peptide fold change", "setting": "50 µM", "result": -0.0089}]}, {"target": "CASP4_P49662_109_LCPHEEFLR (UniProt P49662)", "values": [{"measurement": "probe-labelled cysteine peptide fold change", "setting": "10 µM", "result": 0.0416}, {"measurement": "probe-labelled cysteine peptide fold change", "setting": "50 µM", "result": 0.175}]}, {"target": "CAPNS1_P04632_232_YSDESGNMDFDNFISCLVR (UniProt P04632)", "values": [{"measurement": "probe-labelled cysteine peptide fold change", "setting": "10 µM", "result": 0.216}, {"measurement": "probe-labelled cysteine peptide fold change", "setting": "50 µM", "result": 0.0576}]}, {"target": "CAP1_Q01518_375_GKINSITVDNCKK (UniProt Q01518)", "values": [{"measurement": "probe-labelled cysteine peptide fold change", "setting": "10 µM", "result": -0.531}, {"measurement": "probe-labelled cysteine peptide fold change", "setting": "50 µM", "result": -0.366}]}, {"target": "CAPN7_Q9Y6W3_242_FAYPMPFCDR (UniProt Q9Y6W3)", "values": [{"measurement": "probe-labelled cysteine peptide fold change", "setting": "10 µM", "result": -0.0509}, {"measurement": "probe-labelled cysteine peptide fold change", "setting": "50 µM", "result": -0.204}]}, {"target": "CARHSP1_Q9Y2V2_112_MCSIPPK (UniProt Q9Y2V2)", "values": [{"measurement": "probe-labelled cysteine peptide fold change", "setting": "10 µM", "result": -0.0249}, {"measurement": "probe-labelled cysteine peptide fold change", "setting": "50 µM", "result": 0.0376}]}, {"target": "CARS_P49589_27_RVQPQWSPPAGTQPCR (UniProt P49589)", "values": [{"measurement": "probe-labelled cysteine peptide fold change", "setting": "10 µM", "result": -0.117}, {"measurement": "probe-labelled cysteine peptide fold change", "setting": "50 µM", "result": 0.0505}]}, {"target": "CBR3_O75828_227_ILVNACCPGPVK (UniProt O75828)", "values": [{"measurement": "probe-labelled cysteine peptide fold change", "setting": "10 µM", "result": 0.0945}, {"measurement": "probe-labelled cysteine peptide fold change", "setting": "50 µM", "result": -0.0291}]}, {"target": "CCT2_P78371_412_TVYGGGCSEMLMAHAVTQLANR (UniProt P78371)", "values": [{"measurement": "probe-labelled cysteine peptide fold change", "setting": "10 µM", "result": -0.0947}, {"measurement": "probe-labelled cysteine peptide fold change", "setting": "50 µM", "result": 0.0752}]}, {"target": "CASP9_P55211_272_IVNIFNGTSCPSLGGKPK (UniProt P55211)", "values": [{"measurement": "probe-labelled cysteine peptide fold change", "setting": "10 µM", "result": -0.238}, {"measurement": "probe-labelled cysteine peptide fold change", "setting": "50 µM", "result": -0.121}]}, {"target": "CARS_P49589_335_ASKPGEPSWPCPWGK (UniProt P49589)", "values": [{"measurement": "probe-labelled cysteine peptide fold change", "setting": "10 µM", "result": -0.0405}, {"measurement": "probe-labelled cysteine peptide fold change", "setting": "50 µM", "result": -0.0636}]}, {"target": "CCNDBP1_O95273_89_FCEQVHAAIK (UniProt O95273)", "values": [{"measurement": "probe-labelled cysteine peptide fold change", "setting": "10 µM", "result": 0.0786}, {"measurement": "probe-labelled cysteine peptide fold change", "setting": "50 µM", "result": 0.28}]}, {"target": "CAPN7_Q9Y6W3_120_ENVEDAIELYTEAVDLCLK (UniProt Q9Y6W3)", "values": [{"measurement": "probe-labelled cysteine peptide fold change", "setting": "10 µM", "result": 0.0227}, {"measurement": "probe-labelled cysteine peptide fold change", "setting": "50 µM", "result": 0.0437}]}, {"target": "CAP1_Q01518_416_VPTISINKTDGCHAYLSK (UniProt Q01518)", "values": [{"measurement": "probe-labelled cysteine peptide fold change", "setting": "10 µM", "result": -0.222}, {"measurement": "probe-labelled cysteine peptide fold change", "setting": "50 µM", "result": -0.141}]}, {"target": "CCNL2_Q96S94_190_ELGFCVHVK (UniProt Q96S94)", "values": [{"measurement": "probe-labelled cysteine peptide fold change", "setting": "10 µM", "result": 0.123}, {"measurement": "probe-labelled cysteine peptide fold change", "setting": "50 µM", "result": 0.365}]}, {"target": "CAPN1_P07384_417_ESGCSFVLALMQK (UniProt P07384)", "values": [{"measurement": "probe-labelled cysteine peptide fold change", "setting": "10 µM", "result": 0.0989}, {"measurement": "probe-labelled cysteine peptide fold change", "setting": "50 µM", "result": 0.133}]}, {"target": "CCDC88B_A6NC98_1382_AQSSLCLRDETLAGGQR (UniProt A6NC98)", "values": [{"measurement": "probe-labelled cysteine peptide fold change", "setting": "10 µM", "result": -0.221}, {"measurement": "probe-labelled cysteine peptide fold change", "setting": "50 µM", "result": -0.355}]}, {"target": "CCT3_P49368_366_IGDEYFTFITDCK (UniProt P49368)", "values": [{"measurement": "probe-labelled cysteine peptide fold change", "setting": "10 µM", "result": 0.137}, {"measurement": "probe-labelled cysteine peptide fold change", "setting": "50 µM", "result": -0.167}]}, {"target": "CCL5_P13501_57_CSNPAVVFVTR (UniProt P13501)", "values": [{"measurement": "probe-labelled cysteine peptide fold change", "setting": "10 µM", "result": -0.101}, {"measurement": "probe-labelled cysteine peptide fold change", "setting": "50 µM", "result": -0.209}]}, {"target": "CCNA2_P20248_390_KTGYTLESLKPCLMDLHQTYLK (UniProt P20248)", "values": [{"measurement": "probe-labelled cysteine peptide fold change", "setting": "10 µM", "result": -0.167}, {"measurement": "probe-labelled cysteine peptide fold change", "setting": "50 µM", "result": -0.296}]}, {"target": "CBX5_P45973_59_NLDCPELISEFMK (UniProt P45973)", "values": [{"measurement": "probe-labelled cysteine peptide fold change", "setting": "10 µM", "result": -0.0596}, {"measurement": "probe-labelled cysteine peptide fold change", "setting": "50 µM", "result": 0.0364}]}, {"target": "CASP2_P42575_320_MFFIQACR (UniProt P42575)", "values": [{"measurement": "probe-labelled cysteine peptide fold change", "setting": "10 µM", "result": -0.0831}, {"measurement": "probe-labelled cysteine peptide fold change", "setting": "50 µM", "result": 0.0136}]}, {"target": "CARM1_Q86X55_193_IVLDVGCGSGILSFFAAQAGAR (UniProt Q86X55)", "values": [{"measurement": "probe-labelled cysteine peptide fold change", "setting": "10 µM", "result": 0.174}, {"measurement": "probe-labelled cysteine peptide fold change", "setting": "50 µM", "result": -0.117}]}, {"target": "CCT3_P49368_213_IPGGIIEDSCVLR (UniProt P49368)", "values": [{"measurement": "probe-labelled cysteine peptide fold change", "setting": "10 µM", "result": -0.0222}, {"measurement": "probe-labelled cysteine peptide fold change", "setting": "50 µM", "result": 0.0929}]}, {"target": "CCAR1_Q8IX12_539_ALTGIDLSVCTQWYR (UniProt Q8IX12)", "values": [{"measurement": "probe-labelled cysteine peptide fold change", "setting": "10 µM", "result": -0.0774}, {"measurement": "probe-labelled cysteine peptide fold change", "setting": "50 µM", "result": -0.142}]}, {"target": "CARM1_Q86X55_438_AGDTLSGTCLLIANK (UniProt Q86X55)", "values": [{"measurement": "probe-labelled cysteine peptide fold change", "setting": "10 µM", "result": -0.0311}, {"measurement": "probe-labelled cysteine peptide fold change", "setting": "50 µM", "result": 0.13}]}, {"target": "CCT2_P78371_535_VPDHHPC (UniProt P78371)", "values": [{"measurement": "probe-labelled cysteine peptide fold change", "setting": "10 µM", "result": 0.12}, {"measurement": "probe-labelled cysteine peptide fold change", "setting": "50 µM", "result": -0.0854}]}, {"target": "CCAR2_Q8N163_644_PLSSGGEEEEKPRGEASEDLCEMALDPELLLLR (UniProt Q8N163)", "values": [{"measurement": "probe-labelled cysteine peptide fold change", "setting": "10 µM", "result": 0.425}, {"measurement": "probe-labelled cysteine peptide fold change", "setting": "50 µM", "result": 0.0687}]}, {"target": "CBX8_Q9HC52_142_NMGLSPPASSTSTSSTCR (UniProt Q9HC52)", "values": [{"measurement": "probe-labelled cysteine peptide fold change", "setting": "10 µM", "result": -0.00929}, {"measurement": "probe-labelled cysteine peptide fold change", "setting": "50 µM", "result": -0.325}]}, {"target": "CASP10_Q92851_350_CNPAHADGDCFVFCILTHGR (UniProt Q92851)", "values": [{"measurement": "probe-labelled cysteine peptide fold change", "setting": "10 µM", "result": 0.0596}, {"measurement": "probe-labelled cysteine peptide fold change", "setting": "50 µM", "result": 0.033}]}, {"target": "CCDC117_Q8IWD4_81_EEEEDDDCPVR (UniProt Q8IWD4)", "values": [{"measurement": "probe-labelled cysteine peptide fold change", "setting": "10 µM", "result": -0.0343}, {"measurement": "probe-labelled cysteine peptide fold change", "setting": "50 µM", "result": -0.323}]}, {"target": "CASP8_Q14790_313_IYQLMDHSNMDCFICCILSHGDK (UniProt Q14790)", "values": [{"measurement": "probe-labelled cysteine peptide fold change", "setting": "10 µM", "result": 0.00975}, {"measurement": "probe-labelled cysteine peptide fold change", "setting": "50 µM", "result": 0.167}]}, {"target": "CAP1_Q01518_356_CVNTTLQIK (UniProt Q01518)", "values": [{"measurement": "probe-labelled cysteine peptide fold change", "setting": "10 µM", "result": -0.031}, {"measurement": "probe-labelled cysteine peptide fold change", "setting": "50 µM", "result": 0.0667}]}, {"target": "CCPG1_Q9ULG6_672_ELDTFCHWNELDQFINK (UniProt Q9ULG6)", "values": [{"measurement": "probe-labelled cysteine peptide fold change", "setting": "10 µM", "result": 0.165}, {"measurement": "probe-labelled cysteine peptide fold change", "setting": "50 µM", "result": 0.272}]}, {"target": "CBR3_O75828_150_AFENCSEDLQER (UniProt O75828)", "values": [{"measurement": "probe-labelled cysteine peptide fold change", "setting": "10 µM", "result": 0.421}, {"measurement": "probe-labelled cysteine peptide fold change", "setting": "50 µM", "result": 0.245}]}, {"target": "CANX_P27824_160_PLIVQYEVNFQNGIECGGAYVK (UniProt P27824)", "values": [{"measurement": "probe-labelled cysteine peptide fold change", "setting": "10 µM", "result": 0.0907}, {"measurement": "probe-labelled cysteine peptide fold change", "setting": "50 µM", "result": 0.185}]}, {"target": "CARS_P49589_405_YFLHTGHLTIAGCK (UniProt P49589)", "values": [{"measurement": "probe-labelled cysteine peptide fold change", "setting": "10 µM", "result": 0.0834}, {"measurement": "probe-labelled cysteine peptide fold change", "setting": "50 µM", "result": 0.0173}]}, {"target": "CASP1_P29466_364_LIEHMQEYACSCDVEEIFR (UniProt P29466)", "values": [{"measurement": "probe-labelled cysteine peptide fold change", "setting": "10 µM", "result": -0.0418}, {"measurement": "probe-labelled cysteine peptide fold change", "setting": "50 µM", "result": -0.157}]}, {"target": "CASP2_P42575_244_LLGYDVHVLCDQTAQEMQEK (UniProt P42575)", "values": [{"measurement": "probe-labelled cysteine peptide fold change", "setting": "10 µM", "result": 0.00292}, {"measurement": "probe-labelled cysteine peptide fold change", "setting": "50 µM", "result": -0.00038}]}, {"target": "CC2D1B_Q5T0F9_809_LENECEIR (UniProt Q5T0F9)", "values": [{"measurement": "probe-labelled cysteine peptide fold change", "setting": "10 µM", "result": 0.15}, {"measurement": "probe-labelled cysteine peptide fold change", "setting": "50 µM", "result": 0.151}]}]}
